# Source: PubChem BioAssay AID1458 (National Center for Advancing Translational Sciences (NCATS), 2008)
# About 5,900 (2.8%) of roughly 210,000 compounds were called active. About 5% were inconclusive and are not listed. Calls follow the shape of the dose curve; as a rule, active = well fitted activation curve with a large enough effect; inconclusive = small, poorly fitted or top-dose-only effect; inactive = no such curve, though single readings can be large or run the other way. The list shows a part of the results, in another mix than the full data. Where no call is shown, the source filed none.
# Experiment: qHTS Assay for Enhancers of SMN2 Splice Variant Expression; also: nearly all actives have a fitted effect of over 55% in size; as to activity change, positive = activation: % of control where 0% means no effect
# Details: HEK293 SMN2-luciferase splicing reporter, luminescence, 30-36 h; activity change, positive = activation: at 46.1 µM (top of the series) unless noted
# Summary of the method: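 qHTS luciferase splicing reporter: luminescence rises when SMN2 exon 7 is included in transfected HEK293 cells. Compound exposure lasted 30-36 h at 37C, with 4.5 mM final sodium butyrate as control, followed by a ONE-Glo read.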
# Potency is read from the fitted curve at half-maximal effect.
SMILES,"activity change, positive = activation",Potency
O=C(O)c1cccc(CSc2ncccn2)c1,46.8%,
CCOC(=O)N1CCN(CC(=O)Nc2c(C(=O)OC)[nH]c3ccc(Cl)cc23)CC1,inactive: -46%,
COc1ccc(S(=O)(=O)N2CCOCC2)cc1NC(=O)CN1CCC(Cc2ccccc2)CC1,-44.8%,
Nc1ccccc1N=Cc1ccc(-c2cccc(Cl)c2)o1,-44.1%,
CCCc1nnc(NC(=O)Nc2ccccc2Cl)s1,,active: 15.8 µM
O=C(/C(=C\c1ccccc1)c1nc2ccccc2[nH]1)c1ccc(Cl)cc1,inactive: -83.6%,
COc1ccc(C(O)c2nccc3cc(OC)c(OC)cc23)cc1OC (centres undefined),-82.1%,
COc1ccc(-c2nsc3c(N4CCN(C(=O)c5ccco5)CC4)ncnc23)cc1,inactive: -34.2%,
N#Cc1c(N2CCN(C(=O)c3ccco3)CC2)nc(-c2ccccc2)c2c1CCCC2,inactive: -44.1%,
CC(=O)Oc1ccccc1N1C(=O)c2ccc(C(=O)O)cc2C1=O,31.7%,
O=C(CSc1nnnn1-c1ccc2c(c1)OCCO2)Nc1nc2c(s1)CCCC2,inactive: -33.4%,
Cc1cccc(Nc2nnc(-c3ccc(C)c(S(=O)(=O)N4CCN(C)CC4)c3)c3ccccc23)c1,inactive: -35.5%,
Cc1csc(SCC(=O)Nc2sccc2C(N)=O)n1,,active: 12.6 µM
CCn1c(SCC(=O)N(C(C)C)C(C)C)nnc1-c1cc2ccccc2cc1O,-7.36%,
COC(=O)C1=C(C)Nc2c(c(=O)n(C)c(=O)n2C)C1c1ccncc1 (centres undefined),38%,
CC(=O)Nc1ccc(-c2csc(Nc3ncccn3)n2)cc1,,active: 5.01 µM
CSc1cccc(NS(=O)(=O)c2ccc3c(c2)oc(=O)n3C)c1,inactive: -30.7%,
Cc1ccc(-c2cc(-c3ccccc3)no2)c(O)c1,-41.3%,
Cc1cnc(NC(=O)C2COc3ccccc3O2)s1 (centres undefined),,active: 10 µM
COc1cc(/C=N/NC(=S)NCCN2CCOCC2)cc(OC)c1O,41%,
COc1ccc(-c2oc3ncn4nc(Cc5ccccc5)nc4c3c2-c2ccc(OC)cc2)cc1,42.7%,
O=C(Nc1ccccn1)C12CC3CC(C1)CC(C(=O)Nc1ccccn1)(C3)C2,-46%,
CC(=C1C(=O)c2ccccc2C1=O)N1CCN(c2ccccn2)CC1,31.4%,

# A different layout for 2 compounds above:
SMILES	activity change, positive = activation	Potency
Cc1cnc(NC(=O)C2COc3ccccc3O2)s1 (centres undefined)		active: 10 µM
COc1cc(/C=N/NC(=S)NCCN2CCOCC2)cc(OC)c1O	41%	

# Next compounds:

SMILES,"activity change, positive = activation",Potency
O=C(COC(=O)c1cc[n+]([O-])cc1)Nc1ccc(F)c([N+](=O)[O-])c1,-31.5%,
Cc1ccc(/C=C/C(=O)Nc2ccccc2C(N)=O)o1,,active: 11.2 µM
S=C(Nc1ccccc1Cl)N1CCN(Cc2ccccc2)CC1,inactive: -44.4%,
CC(C)(C)c1ccc(C(=O)Nc2onc3c2CCCC3)cc1,,active: 11.2 µM
COc1ccc(-n2nc3cc(C)c(NC(C)=O)cc3n2)cc1,,active: 1.58 µM
Nc1nc2ccc(-c3nc4ccccc4o3)cc2s1,,active: 7.94 µM
O=c1nc2c(O)cccn2c2c1c(=O)[nH]c1ccccc12,-71.4%,
O=C(CCSCCC(=O)NCC1CCCO1)NCC1CCCO1 (centres undefined),47.5%,
CCOC(=O)c1cc(C(=O)Nc2ccccc2F)nn1C,,active: 12.6 µM
CCN(CC)C(=O)Cc1cc(C(=O)O)c2ccccc2n1,54.1%,
Cc1ccccc1-c1cc(-c2ccccc2O)n[nH]1,,active: 25.1 µM
Cc1nn(Cc2c(Cl)cccc2Cl)c(C)c1NC(=O)c1cn(-c2ccccc2)nc1-c1ccccc1,-80%,
Cc1ccc2nc(NC(=O)/C=C/c3ccc4c(c3)OCO4)sc2c1,inactive: -58.7%,
O=[N+]([O-])c1c(NCCO)cc(N2CCC3(CC2)OCCO3)c2nonc12,40%,
Cc1ccc(O)c(C2=Nc3ccccc3N=C(c3cccs3)C2)c1,inactive: -22.1%,
CCOc1cc(N2CCOCC2)c(OCC)cc1NC(=O)CN1CCC(Cc2ccccc2)CC1,-58.4%,
S=c1[nH]nc(-c2ccccc2Cl)n1CC1CCCO1 (centres undefined),37.4%,
Cc1ccccc1-c1n[nH]c(=S)n1/N=C/c1c(C)nn(-c2ccccc2)c1C,,active: 14.1 µM
Cc1[nH]n(-c2ccccc2)c(=O)c1/C=N/NC(=O)c1ccoc1C,-80.5%,
C=CCOc1ccc(Br)cc1/C=C1/SC(=Nc2ccc(C(=O)O)cc2)NC1=O,inactive: -18.1%,
CCOC(=O)C1=C(C)NC2=C(C(=O)CCC2)C1c1ccc(N(C)C)cc1 (centres undefined),37.7%,
Cc1cc(C(=O)NC2=NCCS2)cs1,,active: 11.2 µM
C=CS(=O)(=O)c1ccc(Oc2ccc(S(=O)(=O)C=C)cc2)cc1,inactive: -92.2%,

SMILES,"activity change, positive = activation",Potency
CCC(=O)N1CCN(c2ccc(NC(=O)c3cc4ccccc4o3)cc2Cl)CC1,inactive: -109%,
Cc1ccc(S(=O)(=O)Cc2ccc(C(=O)NCCc3ccc(Cl)cc3)o2)cc1,inactive: -39.7%,
CCCc1ccc(S(=O)(=O)NCCc2ccncc2)cc1,-99.1%,
Cc1onc(-c2ccccc2)c1C(=O)NNC(=S)NC(=O)/C=C/c1ccccc1,-86.7%,
O=C(O)c1ccc(CSCc2c(F)cccc2Cl)o1,44.7%,
COC(=O)c1sc(N2CCN(c3ccc(Cl)cc3)CC2)nc1N,inactive: -64.9%,
CCOC(=O)c1ccc(NC(=O)c2ccccc2)cc1,,active: 10 µM
O=C(NC1CCCCCC1)C1CCN(C(=O)Cc2ccccc2)CC1,30.1%,
Cc1ccc(-n2c(N)c(C(=O)Nc3ccccc3F)sc2=S)cc1C,inactive: -49.5%,
COC(=O)c1cccc(Nc2ncnc3sccc23)c1,inactive: -41.3%,
CCN(CC)C(=O)CSc1nc(-c2cccs2)cc(-c2cccs2)c1C#N,inactive: -33.2%,
CCn1cc(C(=O)NCc2ccc(C)cc2)c(=O)c2cc(S(=O)(=O)N3CCC(C)CC3)ccc21,29.6%,
CC1CCCN(C(=O)CCS(=O)(=O)Cc2ccccc2)C1 (centres undefined),34.5%,
CCc1cc(/C(Cc2csc(C)n2)=N/O)c(O)cc1O,inactive: -63.5%,
Cc1ccc(S(=O)(=O)N2CCCCC2)cc1NC(=O)COC(=O)c1cc[n+]([O-])cc1,36.8%,
O=C1CCc2nc3ccccc3c(=O)n2N1,55.2%,
COc1ccc(N2C(=O)CCC(C(=O)N3CCCCC3)C2c2ccc(F)cc2)cc1 (centres undefined),46.1%,
CC(=O)Nc1cccc(C(=O)N2CCN(Cc3ccccc3)CC2)c1,41.7%,
Cc1oc(=O)c(NC(=O)c2ccccc2)cc1C(C)O (centres undefined),56.8%,
CCOC(=O)c1nnn(CC(=O)Nc2ccccc2)c1C(=O)OCC,12.6%,
CCCCCCCCCCCCC[N+](C)(C)Cc1ccccc1,inactive: -36.7%,
COc1ccc(CCNC(=O)c2nc3ncccn3n2)cc1OC,33%,
Cc1ccc(S(=O)(=O)Nc2ccc(C(OC(=O)c3ccccc3[N+](=O)[O-])(C(F)(F)F)C(F)(F)F)cc2)cc1,-87.1%,
